Data from PubChem BioAssay AID624297 (National Center for Advancing Translational Sciences (NCATS), 2012).
Several values for one entry are separate records, joined by “and”; a condition that tells them apart may be missing. Equal values may be shown once. Out of some 340,000 compounds screened, about 6,200 (1.8%) were called active. Inconclusive results, whose numbers are uncertain, are shown with a selection of clear calls. Calls come from the whole dose curve; as a rule, active = well fitted activation curve with a large enough effect; inconclusive = small, poorly fitted or top-dose-only effect; inactive = no such curve, though single readings can be large or run the other way. Potencies beside an inconclusive call are fits to weak or partial responses and may not hold up.

Assay: A quantitative high throughput screen for small molecules that induce DNA re-replication in SW480 colon adenocarcinoma cells. For re-replication activation: % of control where 0% means no effect. Note: nearly all actives have a fitted effect of over 55% in size.
Conditions: Hoechst DNA content imaging, 48 h; re-replication activation: at 46.1 µM (top of the series) unless noted
Summary of the method: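 Per well, 250 cells were exposed to pinned compound for 48 hr. Nuclear DNA was visualised with Hoechst (40 min, 37 C) and total object intensity recorded by fluorescence scanning.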
Potency is the fitted concentration of half-maximal effect.

| SMILES | Potency | re-replication activation |
| --- | --- | --- |
| O=C(Nc1cccc(S(=O)(=O)NC2=NCCC2)c1)C1CCCCC1 | inconclusive: 29.1 µM [activator, single point] |  |
| CCCCS(=O)(=O)N1C2=NC(C(=O)OC)=C(C(=O)OC)[C@@H]3N(C)c4ccc(OC)cc4[C@]23C[C@H]1C(=O)OC | inconclusive: 0.58 µM [activator, single point] |  |
| COc1cc(/C=C2\CCC/C(=C\c3ccc(O)c(OC)c3)C2=O)ccc1O | inactive and inconclusive: 23.1 µM [activator, single point] |  |
| CCn1nc(C)c(CN2CCC(C(=O)Nc3cccc(-c4cccc(Cl)c4)c3)CC2)c1C | inconclusive: 2.91 µM [activator, single point] |  |
| Cn1nc(C(C)(C)C)cc1C(=O)NNC(=O)c1ccc(C(F)(F)F)cc1 |  | inactive: 5.41% |
| O=C(CCl)N1CCCC1c1ccc2c(c1)OCCO2 (stereo unspecified) | inconclusive: 4.11 µM [activator, single point] |  |
| Cn1cc([N+](=O)[O-])c(C(=O)Nc2ccn(C34CC5CC(CC(C5)C3)C4)n2)n1 | inconclusive: 20.6 µM [activator, single point] |  |
| CCOC(=O)c1c(NC(=O)Cn2nc(C(=O)O)c3ccccc3c2=O)sc2c1CCC(C)C2 (stereo unspecified) | inconclusive: 32.6 µM [activator, partial curve, poor fit] |  |
| C/C(=N\N(C)C)C1=C(O)c2ccccc2C1=O |  | inactive: -5.48% |
| O=C(NCc1ccccc1Cl)NCc1ccccc1Cl |  | inactive: -18.1% |
| Cc1ccc(NC(=S)N(Cc2ccccc2)C(C)C)cc1 | inconclusive: 0.103 µM [activator, full curve, poor fit] |  |
| CCOC(=O)c1cc(-c2ccc3c(c2)OCCO3)n[nH]1 | inconclusive: 29.1 µM [activator, single point] |  |
| Cc1cc(C)c(NC(=O)CSc2nc(COc3ccccc3)nc3ccccc23)c(C)c1 | inconclusive: 29.1 µM [activator, single point] |  |
| Cc1cc2ccccn2c1C(=O)c1ccc(S(=O)(=O)N(C)C)cc1 | inconclusive: 3.66 µM [activator, partial curve, poor fit] |  |
| N#Cc1ccc(N=c2ssnc2Cl)cc1 | inconclusive: 23.1 µM [activator, single point] |  |
| COCCCNC(=O)c1cccs1 | inconclusive: 6.51 µM [activator, single point] |  |
| COC(=O)[C@@]1(Cc2ccccc2)[C@H]2c3cc(C(=O)N4CCCC4)n(Cc4ccsc4Br)c3C[C@H]2CN1C(=O)c1ccccc1 | inconclusive: 20.6 µM [activator, single point] |  |
| CC(=O)Oc1ccc2c(=O)c(/C=N/c3cc(=O)[nH]c(=S)[nH]3)coc2c1 |  | inactive: -5.44% |
| CCCCCCSc1nc(O)c(C2OC(=O)c3c2ccc(OC)c3OC)c(=O)n1-c1ccccc1 (stereo unspecified) |  | inactive: -7.02% |
| COc1cccc(NC(=O)c2cc(-c3ccco3)nc3ccccc23)c1 |  | inactive: 23.3% |
| O=C(O)CNC(=S)N(Cc1ccccc1)Cc1cccnc1 | inconclusive: 2.06 µM [activator, full curve, poor fit] |  |
| CCCOc1cccc(C2/C(=C(\O)c3ccc4c(c3)OCCO4)C(=O)C(=O)N2CCCn2ccnc2)c1 (stereo unspecified) | inconclusive: 0.231 µM [activator, full curve, poor fit] |  |

| SMILES | Potency | re-replication activation |
| --- | --- | --- |
| CN1CCN(C(=O)c2ccc(N(Cc3ccc(Cl)cc3)S(C)(=O)=O)cc2)CC1 | inconclusive: 29.1 µM [activator, single point] |  |
| COc1ccc(NC(=O)N(C)C[C@H]2Oc3c(NC(=O)Nc4ccc(C(F)(F)F)cc4)cccc3C(=O)N([C@H](C)CO)C[C@@H]2C)cc1 |  | inactive: -4.58% |
| CN1CCN(C(=O)c2cc(COc3ccc(F)cc3Cl)on2)CC1c1ccccc1 (stereo unspecified) | inconclusive: 23.1 µM [activator, single point] |  |
| Cc1ccc(NC(=O)COC(=O)Cn2ccc(C(F)(F)F)n2)cc1Cl |  | inactive: -15.3% |
| COc1cccc(NC(=O)CN(C)C(=O)CSc2ccc3c(c2)OCCO3)c1 |  | inactive: -2.26% |
| Cc1nc(Nc2ccccc2C)c2cnn(C)c2n1 | inconclusive: 14.6 µM [activator, partial curve] |  |
| Cc1nnc(N/N=C\c2ccc(-c3ccccc3[N+](=O)[O-])o2)n1N | inconclusive: 0.731 µM [activator, full curve, poor fit] |  |
| CC(=O)Nc1ccc(NC(=O)C2CC(=O)N=C(N)S2)cc1 (stereo unspecified) | inconclusive: 0.651 µM [activator, partial curve, poor fit] |  |
| Cc1ccc(C)c(N(C(=O)c2csnn2)C(C(=O)NC2CCCC2)c2cccnc2)c1 (stereo unspecified) | inconclusive: 0.794 µM [activator, partial curve, poor fit] |  |
| Cc1cc(C)cc(NC(=O)Nc2ccc3c(c2)N(C)C(=O)CS3)c1 | inconclusive: 29.1 µM [activator, single point] |  |
| O=C(COc1ccc(Cl)cc1)Nc1cc2c3c(c1)CC(=O)N3CCC2 |  | inactive: -4.34% |
| CC(C)=CCc1c2c(c(O)c3c(=O)c4c(oc13)-c1cc(O)c(O)cc1OC4C=C(C)C)C=CC(C)(C)O2 (stereo unspecified) | inconclusive: 0.731 µM [activator, partial curve, poor fit] |  |
| CNC(=S)/N=C(/Nc1ccccc1)c1ccccc1 |  | inactive: 22.5% |
| COc1ccc(/C=C2/Sc3ccc(C(=O)NCCN4CCCCCC4)cc3NC2=O)cc1 |  | inconclusive: -3.1% [activator] |
| COc1ccc(CS(=O)(=O)c2nc(C)cc(C)c2S(C)(=O)=O)cc1 | inconclusive: 5.17 µM [activator, partial curve, poor fit] |  |
| O=C(N/N=C/c1ccc(O)cc1O)/C(=C/c1ccccc1)CCO | inconclusive: 6.51 µM [activator, single point] |  |
| Cc1ccc(Nc2nc(-c3sc(C)nc3C)cs2)cc1 | active: 2.06 µM |  |
| COc1ccc(CN2CCN(S(=O)(=O)c3ccc(F)cc3)CC2)cc1OC |  | inactive: -4.63% |
| CN(Cc1c(O)ccc2c1oc(=O)c1ccccc12)C1CCCCC1 |  | inactive: 6.1% |
| COc1ccc(-c2[nH]ncc2N=Nc2cc(C)cc(C)c2)cc1 | inconclusive: 16.4 µM [activator, single point] |  |
| CCOc1ccccc1C(=O)N[C@H](C(=O)OCc1csc(CC(=O)Nc2ccc(C)cc2)n1)C(C)C | inconclusive: 18.4 µM [activator, single point] |  |
| O=C(NCCCCc1ccccc1)NC[C@@H]1CC[C@@H](Cc2ccc(-c3ccccc3)cc2)O1 |  | inactive: -32.5% |

3 compounds already listed, sorted by molecular weight, low to high:

| SMILES | Potency | re-replication activation |
| --- | --- | --- |
| Cc1ccc(Nc2nc(-c3sc(C)nc3C)cs2)cc1 | active: 2.06 µM |  |
| COc1ccc(-c2[nH]ncc2N=Nc2cc(C)cc(C)c2)cc1 | inconclusive: 16.4 µM [activator, single point] |  |
| Cc1ccc(C)c(N(C(=O)c2csnn2)C(C(=O)NC2CCCC2)c2cccnc2)c1 (stereo unspecified) | inconclusive: 0.794 µM [activator, partial curve, poor fit] |  |

More records

| SMILES | Potency | re-replication activation |
| --- | --- | --- |
| CN(CCN1CCOCC1)C(=O)c1cc(COc2ccc(F)c(F)c2)on1 | inconclusive: 6.51 µM [activator, single point] |  |
| COc1ccc(CNC(=O)C(c2ccco2)N(Cc2cccs2)C(=O)Cc2cccs2)cc1 (stereo unspecified) | inconclusive: 10.3 µM [activator, partial curve, poor fit] |  |
| Cc1ccc2cc3cc(C(=O)NCCCN4CCCC4)oc3nc2c1 | inconclusive: 29.1 µM [activator, single point] |  |
| Cc1ccc([C@@H]2[C@@H]3C(=O)N(c4ccccc4)C(=O)[C@@H]3[C@]3(Cc4ccccc4)C(=O)N(CC4CC4)CC(=O)N23)o1 |  | inactive: -3.38% |
| CCC(C)c1ccc(NC(=O)NCCN2CCCCC2)cc1 (stereo unspecified) | inconclusive: 29.1 µM [activator, partial curve, poor fit] |  |
| Oc1ccc(Cc2ccccc2)c2cccnc12 | inconclusive: 1.16 µM [activator, full curve, poor fit] |  |
| Cc1sc2ncnc(Sc3ccccc3C(=O)Nc3ccc(C#N)cc3)c2c1C | inconclusive: 14.6 µM [activator, partial curve] |  |
| O=[N+]([O-])c1ccc(N=Cc2c(O)ccc3ccccc23)cc1 | inconclusive: 18.4 µM [activator, single point] |  |
| Cc1ccc(C(=O)NC(=S)N(C)Cc2ccccc2)cc1 |  | inactive: -30.9% |
| CC(=O)Nc1c(-c2ccccc2)nc2ccc(Cl)cn12 |  | inactive: -8.44% |
| COc1ccc(Br)cc1/C=N/NC(=O)c1cc(OC)c(OC)c(OC)c1 | inconclusive: 29.1 µM [activator, single point] |  |
| OC(CCN1CCC2CCC(C2)C1)c1ccc(Br)cc1 (stereo unspecified) | active: 14.6 µM |  |
| COc1ccc(Br)cc1/C=N/NC(=O)c1cccnc1 | inconclusive: 29.1 µM [activator, single point] |  |
| O=Cc1s/c(=N\S(=O)(=O)c2ccccc2)n(CCCCl)c1Cl | active: 8.2 µM |  |
| COCCCNC(=O)/C(C#N)=C/c1c(N2CCN(C)CC2)nc2c(C)cccn2c1=O | inconclusive: 29.1 µM [activator, single point] |  |
| CCCCN(CC)CCNC(=O)c1cc2c(-c3ccccc3F)nn(C)c2s1 | inconclusive: 23.1 µM [activator, single point] |  |
| CCOCCOC(=O)c1[nH]c2c(c1C)C(=O)CC(c1ccccc1)C2 (stereo unspecified) | active: 0.517 µM |  |
| CN(C)c1ccc(-c2cc([C@H]3[C@@H]4C=CCC[C@@]4(C)C(=O)N3Cc3ccccc3)ccc2F)cc1 |  | inactive: -9.44% [at 9.22 µM] |
| O=C(Nc1cccnc1)C(Cc1ccccc1)n1cccc1 (stereo unspecified) | inconclusive: 0.731 µM [activator, full curve, poor fit] |  |
| CCOC(=O)c1cc(=O)n(Cc2ccccc2C)c2ccccc12 | inconclusive: 32.6 µM [activator, partial curve, poor fit] |  |
| Cn1cc(CN2CCCC(C(=O)Nc3cccc(-c4cc5ccccc5[nH]4)c3)C2)cn1 (stereo unspecified) | inconclusive: 20.6 µM [activator, single point] |  |
| CN(C)c1ccc(NC(=O)CCN2C(=O)c3cccc([N+](=O)[O-])c3C2=O)cc1 |  | inactive: -1.17% |
